PubChem BioAssay AID686938, Drosophila RNAi Screening Center – 2013

Purpose: 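Looking for CRAC channel components and the factors controlling them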 (primary screen)
System: Drosophila S2R+ cells
Reagent: long dsRNA against Drosophila genes, about 0.25 µg dsRNA per well, roughly 10,000 cells
Duration: 5 days of knock-down before the calcium assay
Treatment: thapsigargin (SERCA pump blocker) to empty calcium stores; entry signal taken 4 min after adding it
Measurement: 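Per-well fluo-4 fluorescence in two replicates, unnormalised, measured in resting cells and 4 min after store depletion by the SERCA blocker thapsigargin; ratio of the two present in few wells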
Scale: calcium entry signal: higher = stronger calcium signal after store depletion; entry to resting ratio: higher = more calcium entry relative to resting level; resting calcium signal: higher = higher resting calcium signal
Rule for the call: 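Called when the plate z-score of the entry-to-rest ratio, mean of duplicates, falls below −3; wells with low overall dye signal (Fmax z below −2) or more than five off-targets excluded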
Meaning of the calls: active = strongly reduced calcium entry; inactive = no strong reduction
The screen tested about 23,000 reagents; shown is an unselected part of those that have a named target and a result. In the full data, 75 (0.33%) are marked active. 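Raw plate signals without normalisation; calls rest on plate z-scores that were not deposited; ratio present for only 364 wells.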 Not given: the dose of the treatment.

With CG13308 [DRSC09979], how do the results read?
calcium entry signal, replicate 1 (fluorescence units): 3.40e7; calcium entry signal, replicate 2 (fluorescence units): 4.79e7; resting calcium signal, replicate 1 (fluorescence units): 1.63e7; resting calcium signal, replicate 2 (fluorescence units): 2.17e7; Call: inactive

With CG11294 [DRSC17777], what does the deposit list?
calcium entry signal, replicate 1 (fluorescence units): 3.38e7; calcium entry signal, replicate 2 (fluorescence units): 3.20e7; resting calcium signal, replicate 1 (fluorescence units): 1.80e7; resting calcium signal, replicate 2 (fluorescence units): 1.79e7; Call: inactive

With CheB38c [DRSC02389], what was measured?
calcium entry signal, replicate 1 (fluorescence units): 4.87e7; calcium entry signal, replicate 2 (fluorescence units): 5.37e7; resting calcium signal, replicate 1 (fluorescence units): 2.20e7; resting calcium signal, replicate 2 (fluorescence units): 2.08e7; Call: inactive

What did the screen give for MRG15 [DRSC16731]?
calcium entry signal, replicate 1 (fluorescence units): 4.15e7; calcium entry signal, replicate 2 (fluorescence units): 5.63e7; resting calcium signal, replicate 1 (fluorescence units): 1.97e7; resting calcium signal, replicate 2 (fluorescence units): 2.57e7; Call: inactive

With Cpr47Eg [DRSC07330], what was measured?
calcium entry signal, replicate 1 (fluorescence units): 2.64e7; calcium entry signal, replicate 2 (fluorescence units): 3.99e7; resting calcium signal, replicate 1 (fluorescence units): 1.31e7; resting calcium signal, replicate 2 (fluorescence units): 1.78e7; Call: inactive

With SMC5 [DRSC11849], what was measured?
calcium entry signal, replicate 1 (fluorescence units): 2.54e7; calcium entry signal, replicate 2 (fluorescence units): 3.78e7; resting calcium signal, replicate 1 (fluorescence units): 1.13e7; resting calcium signal, replicate 2 (fluorescence units): 2.50e7; Call: inactive

How did the screen score frtz [DRSC00512]?
calcium entry signal, replicate 1 (fluorescence units): 3.19e7; calcium entry signal, replicate 2 (fluorescence units): 4.87e7; resting calcium signal, replicate 1 (fluorescence units): 1.60e7; resting calcium signal, replicate 2 (fluorescence units): 2.02e7; Call: inactive

What is on record for sinu [DRSC09752]?
calcium entry signal, replicate 1 (fluorescence units): 3.28e7; calcium entry signal, replicate 2 (fluorescence units): 1.95e7; resting calcium signal, replicate 1 (fluorescence units): 1.59e7; resting calcium signal, replicate 2 (fluorescence units): 1.09e7; Call: inactive

For CR14798 [DRSC17956], how do the results read?
calcium entry signal, replicate 1 (fluorescence units): 4.38e7; calcium entry signal, replicate 2 (fluorescence units): 5.75e7; entry to resting ratio: 2.2; resting calcium signal, replicate 1 (fluorescence units): 2.01e7; resting calcium signal, replicate 2 (fluorescence units): 2.16e7; Call: inactive

Ordered by “calcium entry signal, replicate 2 (fluorescence units)” (high to low): some entries from above.
CheB38c [DRSC02389]: calcium entry signal, replicate 1 (fluorescence units) = 4.87e7; calcium entry signal, replicate 2 (fluorescence units) = 5.37e7; resting calcium signal, replicate 1 (fluorescence units) = 2.20e7; resting calcium signal, replicate 2 (fluorescence units) = 2.08e7; Call = inactive
CG13308 [DRSC09979]: calcium entry signal, replicate 1 (fluorescence units) = 3.40e7; calcium entry signal, replicate 2 (fluorescence units) = 4.79e7; resting calcium signal, replicate 1 (fluorescence units) = 1.63e7; resting calcium signal, replicate 2 (fluorescence units) = 2.17e7; Call = inactive
CG11294 [DRSC17777]: calcium entry signal, replicate 1 (fluorescence units) = 3.38e7; calcium entry signal, replicate 2 (fluorescence units) = 3.20e7; resting calcium signal, replicate 1 (fluorescence units) = 1.80e7; resting calcium signal, replicate 2 (fluorescence units) = 1.79e7; Call = inactive

Next records:
With CG9471 [DRSC16499], what was measured?
calcium entry signal, replicate 1 (fluorescence units): 3.65e7; calcium entry signal, replicate 2 (fluorescence units): 4.33e7; resting calcium signal, replicate 1 (fluorescence units): 1.75e7; resting calcium signal, replicate 2 (fluorescence units): 2.13e7; Call: inactive

How did the screen score CG42264 [DRSC18074]?
calcium entry signal, replicate 1 (fluorescence units): 4.00e7; calcium entry signal, replicate 2 (fluorescence units): 4.41e7; resting calcium signal, replicate 1 (fluorescence units): 1.97e7; resting calcium signal, replicate 2 (fluorescence units): 2.09e7; Call: inactive

What is on record for CG42264 [DRSC18075]?
calcium entry signal, replicate 1 (fluorescence units): 3.59e7; calcium entry signal, replicate 2 (fluorescence units): 4.51e7; resting calcium signal, replicate 1 (fluorescence units): 1.79e7; resting calcium signal, replicate 2 (fluorescence units): 1.94e7; Call: inactive

What is on record for CG13488 [DRSC04133]?
calcium entry signal, replicate 1 (fluorescence units): 3.13e7; calcium entry signal, replicate 2 (fluorescence units): 4.87e7; resting calcium signal, replicate 1 (fluorescence units): 1.43e7; resting calcium signal, replicate 2 (fluorescence units): 1.88e7; Call: inactive

Which result is listed for lncRNA:bxd [DRSC13176]?
calcium entry signal, replicate 1 (fluorescence units): 4.24e7; calcium entry signal, replicate 2 (fluorescence units): 3.27e7; resting calcium signal, replicate 1 (fluorescence units): 2.23e7; resting calcium signal, replicate 2 (fluorescence units): 1.60e7; Call: inactive

What did the screen give for Tbcb [DRSC06067]?
calcium entry signal, replicate 1 (fluorescence units): 3.52e7; calcium entry signal, replicate 2 (fluorescence units): 3.14e7; resting calcium signal, replicate 1 (fluorescence units): 1.66e7; resting calcium signal, replicate 2 (fluorescence units): 1.56e7; Call: inactive

Which result is listed for SPoCk [DRSC11675]?
calcium entry signal, replicate 1 (fluorescence units): 3.07e7; calcium entry signal, replicate 2 (fluorescence units): 3.97e7; resting calcium signal, replicate 1 (fluorescence units): 1.42e7; resting calcium signal, replicate 2 (fluorescence units): 1.58e7; Call: inactive

What is on record for SPoCk [DRSC11706]?
calcium entry signal, replicate 1 (fluorescence units): 2.17e7; calcium entry signal, replicate 2 (fluorescence units): 3.26e7; resting calcium signal, replicate 1 (fluorescence units): 9.75e6; resting calcium signal, replicate 2 (fluorescence units): 1.39e7; Call: inactive

For SPoCk [DRSC11844], how do the results read?
calcium entry signal, replicate 1 (fluorescence units): 3.10e7; calcium entry signal, replicate 2 (fluorescence units): 3.64e7; resting calcium signal, replicate 1 (fluorescence units): 1.59e7; resting calcium signal, replicate 2 (fluorescence units): 1.75e7; Call: inactive

For SPoCk [DRSC11845], how do the results read?
calcium entry signal, replicate 1 (fluorescence units): 2.93e7; calcium entry signal, replicate 2 (fluorescence units): 4.39e7; resting calcium signal, replicate 1 (fluorescence units): 1.40e7; resting calcium signal, replicate 2 (fluorescence units): 1.68e7; Call: inactive

With crim [DRSC10573], how do the results read?
calcium entry signal, replicate 1 (fluorescence units): 4.19e7; calcium entry signal, replicate 2 (fluorescence units): 2.89e7; resting calcium signal, replicate 1 (fluorescence units): 3.04e7; resting calcium signal, replicate 2 (fluorescence units): 1.38e7; Call: inactive

What is on record for CG3513 [DRSC00608]?
calcium entry signal, replicate 1 (fluorescence units): 3.74e7; calcium entry signal, replicate 2 (fluorescence units): 3.27e7; resting calcium signal, replicate 1 (fluorescence units): 1.77e7; resting calcium signal, replicate 2 (fluorescence units): 1.58e7; Call: inactive

What is on record for ghi [DRSC08985]?
calcium entry signal, replicate 1 (fluorescence units): 4.13e7; calcium entry signal, replicate 2 (fluorescence units): 3.39e7; resting calcium signal, replicate 1 (fluorescence units): 1.96e7; resting calcium signal, replicate 2 (fluorescence units): 1.81e7; Call: inactive

What did the screen give for CG13700 [DRSC10049]?
calcium entry signal, replicate 1 (fluorescence units): 3.07e7; calcium entry signal, replicate 2 (fluorescence units): 5.78e7; resting calcium signal, replicate 1 (fluorescence units): 1.60e7; resting calcium signal, replicate 2 (fluorescence units): 2.20e7; Call: inactive

For Lac [DRSC07452], what does the deposit list?
calcium entry signal, replicate 1 (fluorescence units): 3.96e7; calcium entry signal, replicate 2 (fluorescence units): 4.66e7; resting calcium signal, replicate 1 (fluorescence units): 1.64e7; resting calcium signal, replicate 2 (fluorescence units): 1.99e7; Call: inactive

How did the screen score Fatp2 [DRSC03971]?
calcium entry signal, replicate 1 (fluorescence units): 3.35e7; calcium entry signal, replicate 2 (fluorescence units): 3.44e7; resting calcium signal, replicate 1 (fluorescence units): 1.63e7; resting calcium signal, replicate 2 (fluorescence units): 1.68e7; Call: inactive

Which result is listed for Fatp2 [DRSC04178]?
calcium entry signal, replicate 1 (fluorescence units): 4.23e7; calcium entry signal, replicate 2 (fluorescence units): 4.91e7; resting calcium signal, replicate 1 (fluorescence units): 2.17e7; resting calcium signal, replicate 2 (fluorescence units): 2.29e7; Call: inactive

What did the screen give for Fatp2 [DRSC04330]?
calcium entry signal, replicate 1 (fluorescence units): 4.67e7; calcium entry signal, replicate 2 (fluorescence units): 4.81e7; resting calcium signal, replicate 1 (fluorescence units): 2.20e7; resting calcium signal, replicate 2 (fluorescence units): 2.39e7; Call: inactive
